# According to PMC7663122, “Protein-Assisted Room-Temperature Assembly of Rigid, Immobile Holliday Junctions and Hierarchical DNA Nanostructures”:
# Target: T1, Redβ (single-strand annealing protein) (UniProt P03698)
# T1 sequence (looked up, limits assumed): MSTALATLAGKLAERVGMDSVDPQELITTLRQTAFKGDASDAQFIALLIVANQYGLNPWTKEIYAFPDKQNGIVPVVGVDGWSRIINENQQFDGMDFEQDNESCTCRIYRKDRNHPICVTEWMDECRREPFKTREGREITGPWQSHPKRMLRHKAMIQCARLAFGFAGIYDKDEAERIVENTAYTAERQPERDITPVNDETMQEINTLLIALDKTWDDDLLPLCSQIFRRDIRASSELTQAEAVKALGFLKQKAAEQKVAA
# Experiment: SEC, agarose gel and AFM
# Conditions: large networks that do not enter the gel; B1 buffer: 50 mM Tris-HCl pH 8.0, 150 mM NaCl, 1 mM MgCl2, 25 °C (sticky-end assemblies); 44mer coating and annealing at 37 °C; SEC in 100 mM Tris-HCl pH 8.0; recombinant protein; protein details: Strep-tag II; folded or branched DNA
sequence,measurement,value
CCAATACGTGCTCGCCGTCCAGCGACTCTTAATTGCGTTGGTGTTTTTGAGTGAGTCTCTAACCCG / CGCCAGTCGTCTATGGCGCTGACGGGTTAGAGACTCACTCAAAAAGGCGATGGTGAGCATGTCTGG / CTGGACGGCGAGCACGTATTGGCCAGACATGCTCACCATCGCCTATCATAAGCGCACCCGCTGCCC / TCAGCGCCATAGACGACTGGCGGGGCAGCGGGTGCGCTTATGATACACCAACGCAATTAAGAGTCG,binding result,binds

# For at least one entry, the source does not settle the construct or the ends of the probe. At least one verdict rests on a figure or table, not on a statement of the authors. Tags and fusion partners may be left off the protein sequences shown.
